Source: PubChem BioAssay AID1259254 (NCATS, 2017)

Screen: 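Genome-wide screen for genes that prevent DNA re-replication in cancer cells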 (primary screen)
System: human HCT116 colorectal cancer cells
Reagents: single siRNA against human genes
Timing: 3 days
Read-out: 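Nuclei stained with Hoechst and imaged; cell-cycle phase assigned by DNA content; G2 share scaled per plate, non-targeting siRNA 0%, GMNN siRNA 100%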
Reading the numbers: G2 robust z-score and G2 cells, % of GMNN control: higher = more G2 cells, more excess DNA replication; raw share of cells in G2: higher = larger share of cells with G2 DNA content
Rule for the call: 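Active siRNAs have a G2 robust z of 5 or more median absolute deviations over the median, which in these data means about 38% or higher of GMNN control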
In all, the deposit lists about 59,000 reagents; this is an unselected part. About 1,550 of them (2.6%) were called active. 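G2 share is only a proxy for re-replication; each gene was hit by three separate siRNAs, and active genes were retested.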 Raw values vary from plate to plate and are shown uncorrected. Reagents against one gene are numbered here. No sequences are given here. Not given: the amount of reagent.

no.	gene knocked down	reagent	G2 robust z-score	G2 cells, % of GMNN control	raw share of cells in G2 (%)	activity call
1	PCDHB5 (protocadherin beta 5)	1	2.13	17.9	9.86	inactive
2	PCDHB5 (protocadherin beta 5)	2	4.96	37.9	23.4	inactive
3	PCDHB5 (protocadherin beta 5)	3	-0.467	-0.321	4.08	inactive
4	BSND (barttin CLCNK type accessory subunit beta)	1	-0.873	-3.17	3.72	inactive
5	BSND (barttin CLCNK type accessory subunit beta)	2	3.91	30.5	16	inactive
6	BSND (barttin CLCNK type accessory subunit beta)	3	0.119	3.81	4.69	inactive
7	POLM (DNA polymerase mu)	1	-0.326	0.673	6.47	inactive
8	POLM (DNA polymerase mu)	2	5.06	38.6	16.6	active
9	POLM (DNA polymerase mu)	3	-1.12	-4.89	2.56	inactive
10	DLGAP1-AS1 (DLGAP1 antisense RNA 1)	1	-0.146	1.94	3.35	inactive
11	DLGAP1-AS1 (DLGAP1 antisense RNA 1)	2	1.2	11.4	8.3	inactive
12	DLGAP1-AS1 (DLGAP1 antisense RNA 1)	3	1.23	11.6	7.45	inactive
13	VIM (vimentin)	1	0.297	5.06	6.14	inactive
14	VIM (vimentin)	2	-0.574	-1.07	3.86	inactive
15	VIM (vimentin)	3	-0.972	-3.87	3.96	inactive
16	LOC644285	1	-0.133	2.03	4.41	inactive
17	LOC644285	2	-0.23	1.35	3.76	inactive
18	LOC644285	3	-0.962	-3.8	2.04	inactive
19	CNOT6 (CCR4-NOT transcription complex subunit 6)	1	1.38	12.7	8.83	inactive
20	CNOT6 (CCR4-NOT transcription complex subunit 6)	2	-1.02	-4.24	3.89	inactive
21	CNOT6 (CCR4-NOT transcription complex subunit 6)	3	0.374	5.6	6.33	inactive
22	MDN1 (midasin AAA ATPase 1)	1	0.0312	3.19	4.59	inactive
23	MDN1 (midasin AAA ATPase 1)	2	0.313	5.17	8.29	inactive
24	MDN1 (midasin AAA ATPase 1)	3	-0.142	1.96	4.16	inactive
25	CDC14C (cell division cycle 14C)	1	-1.08	-4.66	2.09	inactive
26	CDC14C (cell division cycle 14C)	2	-1.29	-6.12	2.8	inactive
27	CDC14C (cell division cycle 14C)	3	1.26	11.8	7.87	inactive
28	OR51Q1 (olfactory receptor family 51 subfamily Q member 1)	1	1.31	12.2	7.95	inactive
29	OR51Q1 (olfactory receptor family 51 subfamily Q member 1)	2	1.42	13	9.05	inactive
30	OR51Q1 (olfactory receptor family 51 subfamily Q member 1)	3	-0.0848	2.37	5.65	inactive

Records above whose target name begins with P or p:
gene knocked down	reagent	G2 robust z-score	G2 cells, % of GMNN control	raw share of cells in G2 (%)	activity call
PCDHB5 (protocadherin beta 5)	1	2.13	17.9	9.86	inactive
PCDHB5 (protocadherin beta 5)	2	4.96	37.9	23.4	inactive
PCDHB5 (protocadherin beta 5)	3	-0.467	-0.321	4.08	inactive
POLM (DNA polymerase mu)	1	-0.326	0.673	6.47	inactive
POLM (DNA polymerase mu)	2	5.06	38.6	16.6	active
POLM (DNA polymerase mu)	3	-1.12	-4.89	2.56	inactive

The results go on:
no.	gene knocked down	reagent	G2 robust z-score	G2 cells, % of GMNN control	raw share of cells in G2 (%)	activity call
31	MAGEA9 (MAGE family member A9)	1	-0.397	0.175	5.05	inactive
32	MAGEA9 (MAGE family member A9)	2	-0.17	1.77	4.92	inactive
33	MAGEA9 (MAGE family member A9)	3	-0.0767	2.43	4.23	inactive
34	KIRREL2 (kirre like nephrin family adhesion molecule 2)	1	0.628	7.39	6.57	inactive
35	KIRREL2 (kirre like nephrin family adhesion molecule 2)	2	2.64	21.5	9.84	inactive
36	KIRREL2 (kirre like nephrin family adhesion molecule 2)	3	0.46	6.2	4.29	inactive
37	PNPO (pyridoxamine 5'-phosphate oxidase)	1	-0.342	0.563	6.68	inactive
38	PNPO (pyridoxamine 5'-phosphate oxidase)	2	1.74	15.2	9.88	inactive
39	PNPO (pyridoxamine 5'-phosphate oxidase)	3	1.44	13.1	9.79	inactive
40	GCKR (glucokinase regulator)	1	-1.63	-8.5	2.8	inactive
41	GCKR (glucokinase regulator)	2	-0.794	-2.62	4.53	inactive
42	GCKR (glucokinase regulator)	3	-0.635	-1.5	3.5	inactive
43	INTU (inturned planar cell polarity protein)	1	1.24	11.7	8.31	inactive
44	INTU (inturned planar cell polarity protein)	2	-0.502	-0.567	4.33	inactive
45	INTU (inturned planar cell polarity protein)	3	-0.0855	2.37	4	inactive
46	ZNF792 (zinc finger protein 792)	1	-0.588	-1.17	2.69	inactive
47	ZNF792 (zinc finger protein 792)	2	3.58	28.2	12.9	inactive
48	ZNF792 (zinc finger protein 792)	3	0.792	8.54	6.52	inactive
49	ZNF862 (zinc finger protein 862)	1	0.674	7.71	6.57	inactive
50	ZNF862 (zinc finger protein 862)	2	0.136	3.92	4.68	inactive
51	ZNF862 (zinc finger protein 862)	3	-0.475	-0.376	3.04	inactive
52	TOMM40L (translocase of outer mitochondrial membrane 40 like)	1	-0.127	2.08	5.56	inactive
53	TOMM40L (translocase of outer mitochondrial membrane 40 like)	2	-1.11	-4.87	2.43	inactive
54	TOMM40L (translocase of outer mitochondrial membrane 40 like)	3	2.96	23.8	15.3	inactive
55	SNCAIP (synuclein alpha interacting protein)	1	-1.22	-5.65	2.78	inactive
56	SNCAIP (synuclein alpha interacting protein)	2	-0.507	-0.597	3.69	inactive
57	SNCAIP (synuclein alpha interacting protein)	3	-0.102	2.25	4.22	inactive
58	SERHL2 (serine hydrolase like 2)	1	1.06	10.4	6.52	inactive
59	SERHL2 (serine hydrolase like 2)	2	0.74	8.17	6.54	inactive
60	SERHL2 (serine hydrolase like 2)	3	-0.582	-1.13	2.74	inactive
61	TCIRG1	1	6.1	45.9	25.6	active
62	TCIRG1	2	-1.34	-6.43	1.76	inactive
63	TCIRG1	3	-0.999	-4.06	4.88	inactive
64	SLC34A3	1	1.26	11.8	7.8	inactive
65	SLC34A3	2	4.54	34.9	13.7	inactive
66	SLC34A3	3	-0.0999	2.26	3.86	inactive
67	NUP160 (nucleoporin 160)	1	2.12	17.9	9.99	inactive
68	NUP160 (nucleoporin 160)	2	0.82	8.74	9.88	inactive
69	NUP160 (nucleoporin 160)	3	2.97	23.8	12.1	inactive
